Test results published in PubChem BioAssay AID2685 (National Center for Advancing Translational Sciences (NCATS), 2010).
The list shows a part of the results. These are further read-outs of the screen, such as a control signal, another cell line or another target. No call is given for them. Compounds called inactive in the main read-out are mostly missing here. Words in brackets tell the shape of the fitted curve; partial curves, single points and poor fits give uncertain potencies.

Assay: qHTS Assay for Lipid Storage Modulators in Drosophila S3 Cells;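 on cell number change: cells counted by Cell Tracker Red CMTPX staining in the red channel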
Settings: BODIPY lipid droplet fluorescence, 18-24 h; for cell number change: measured here: cell count max response, cells fed with added oleic acid
Procedure, shortened: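 Drosophila S3 cells got compounds at several concentrations plus oleic acid (400 uM solution). Laser-scanning cytometry with 488 nm excitation read lipid droplets at 500-530 nm and cells at 575-640 nm. Percent activity was relative to 20 uM Triacsin C.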

[1] = measured here: cell number channel AC50, cells fed with added oleic acid
[2] = measured here: lipid fluorescence (Fed channel) AC50, cells fed with added oleic acid

Compound	cell number change [%]	AC50 [1]	AC50 [2]
CCOc1ccccc1N1CC(C(=O)Nc2c(C)n(C)n(-c3ccccc3)c2=O)CC1=O (centres undefined)	-12	0.231 µM [falling, partial curve, poor fit]	6.51 µM [rising, partial curve, poor fit]
Cc1cc(C(=O)NNC(=S)Nc2cccc(C(F)(F)F)c2)nn1C	10.9		5.17 µM [rising, full curve, poor fit]
CCOC(=O)C1CCN(c2c(Nc3cc(C)cc(C)c3)c(=O)c2=O)CC1	-0.955		0.13 µM [rising, full curve, poor fit]
O=C(Nc1cccc(F)c1)c1ccc(S(=O)(=O)NCC2CCCO2)cc1 (centres undefined)	-4.47		29.1 µM [rising, single point]
CC(C)NC(=O)c1ccc(C(C)C)cc1	14.8		20.6 µM [rising, single point]
CCOc1ccccc1NC(=O)C(c1ccccc1)N1CCN(CC(=O)N2CCOCC2)CC1 (centres undefined)	7.5		
COc1cc2c(cc1NC(=S)Nc1cccc(C(F)(F)F)c1)oc1ccccc12	-23.2		6.51 µM [rising, partial curve]
Cc1cc(-n2nc(C)cc2C)n2ncc(-c3ccccc3)c2n1	-22.5		0.00517 µM [rising, full curve, poor fit]
CCOC(=O)[C@H]1[C@H]2COc3ccc(Br)cc3[C@@H]2N2C(=O)c3ccc(C)cc3NC(=O)[C@@]12C	-28.5		3.26 µM [rising, partial curve, poor fit]
CCOc1cc(C(N)=O)cc(Br)c1OCc1ccccc1	-30.9	14.6 µM [falling, single point]	6.51 µM [falling, single point]
O=C(NCc1ccco1)C(=O)NCC1OCCN1C(=O)c1ccc(Cl)cc1 (centres undefined)	14.6		0.651 µM [falling, partial curve, poor fit]
COc1cccc(C(=O)Nc2ccc(NC(=O)c3ccco3)cn2)c1	-6.82		0.103 µM [falling, full curve, poor fit]
C=CCN(CC=C)Cc1ccc(C(=O)OC)o1	-19		
O=C(CN1C(=O)c2ccccc2C1=O)Oc1ccc(Cl)cc1	-64.9	29.1 µM [falling, single point]	5.17 µM [falling, single point]
NS(=O)(=O)c1ccc(CCNC(=O)COC(=O)C2CCC2)cc1	0.427		
O=C(CSc1ncn[nH]1)NN(c1ccccc1)c1ccccc1	52.8	0.0326 µM [rising, full curve, poor fit]	16.4 µM [rising, single point]
O=C(NC(=S)NCC1CCCO1)c1ccc(Cl)cc1Cl (centres undefined)		0.13 µM [rising, full curve, poor fit]	
Cc1ccc(-c2cc(C(=O)N/N=C/c3c(C)nn(C)c3C)c3ccccc3n2)c(C)c1	22	4.61 µM [rising, single point]	3.66 µM [rising, full curve]
Cc1cc(-c2ccccc2)nc(N(C)N)c1S(C)(=O)=O	53.5	18.4 µM [rising, single point]	0.731 µM [rising, full curve, poor fit]
O=C(Nc1ccnn1C1CCN(Cc2ccccc2OC(F)F)CC1)c1cccc(F)c1	30.6	1.64 µM [rising, full curve]	

Compound	cell number change [%]	AC50 [1]	AC50 [2]
COc1ccc(-c2c(C)oc3c(CN4CCOCC4)c(O)ccc3c2=O)cc1	3.35		29.1 µM [rising, single point]
CC(=O)Nc1ccc(NC(=O)CSc2nnc(COc3ccccc3C)n2CC2CCCO2)cc1 (centres undefined)	154	5.8 µM [rising, full curve]	
COc1ccc2c(c1OC)C(=O)OC2Nc1ncc(Br)cc1Br (centres undefined)	9.09		29.1 µM [falling, single point]
CN(C)c1ccc(C(=O)N2CCCC(N3CCN(Cc4ccc5c(c4)OCO5)CC3)C2)cc1 (centres undefined)	-1.16		29.1 µM [falling, single point]
CCOc1ccc(/C(CCC(=O)O)=N/NC(=S)NCCc2ccccc2)cc1	22.2		
COc1ccc(-c2csc(Nc3ccc(S(N)(=O)=O)cc3)n2)cc1	-4.28		8.2 µM [rising, partial curve]
CCS(=O)(=O)N1CCC(C(=O)NCCN2CCOCC2)CC1	30.5	29.1 µM [rising, single point]	29.1 µM [rising, single point]
COc1ccc(OC)c(-n2nnnc2SCC(=O)Nc2ccc(C(=O)N3CCCCC3)cc2)c1	14.6	0.326 µM [rising, full curve, poor fit]	0.58 µM [rising, full curve]
COc1ccccc1/C=C/C(=O)NCC(=O)N/N=C/c1ccc(C(=O)O)cc1	-10.5		0.0058 µM [falling, full curve, poor fit]
CCc1nn(CCCC(=O)N(C)Cc2ccccc2)c(=O)c2cc3occc3n12	5.73		
CC(=O)c1ccc(OCCCC(=O)NC2CCCCC2C)cc1 (centres undefined)	1.21		18.4 µM [rising, single point]
O=C(Cc1ccc(Cl)cc1)NN1C(=O)c2ccccc2C1=O	30.4	20.6 µM [rising, single point]	0.231 µM [falling, full curve, poor fit]
COCC(=O)N(Cc1cc2cc(OC)ccc2[nH]c1=O)c1ccc(C)cc1	-14.8		0.58 µM [falling, partial curve]
Cc1ccc(-c2nc(CN(CC3CCC3)CC3CCCO3)c(C)o2)s1 (centres undefined)	-16.1		0.103 µM [falling, full curve, poor fit]
COc1ccccc1NC(=O)CSCc1cc(=O)n2c(C)csc2n1	-13.4		0.731 µM [falling, single point]
CCc1cc(C(=O)N/N=C/c2c(C)[nH]c3ccccc23)cs1	32.7	2.91 µM [rising, partial curve]	1.84 µM [rising, partial curve]
COc1ccc(-c2[nH]ncc2CN(C)Cc2nonc2C)c(OC)c1	23.6		5.17 µM [rising, partial curve]
COC(=O)Nc1ccc(S(=O)(=O)N2CCN(CCN3C(=O)C4C5C=CC(C5)C4C3=O)CC2)cc1 (centres undefined)	40.1		
COc1ccc(CCNC(=O)CN(c2cccc([N+](=O)[O-])c2)S(C)(=O)=O)cc1OC	117	20.6 µM [rising, partial curve]	20.6 µM [rising, partial curve]
CC1(C)CC(=O)C=C(NCCN2CCNCC2)C1	-24.8	0.13 µM [falling, full curve, poor fit]	1.46 µM [falling, full curve, poor fit]

Part of the list above with just AC50 [1].
Compound,AC50 [1]
O=C(CSc1ncn[nH]1)NN(c1ccccc1)c1ccccc1,"0.0326 µM [rising, full curve, poor fit]"
O=C(NC(=S)NCC1CCCO1)c1ccc(Cl)cc1Cl (centres undefined),"0.13 µM [rising, full curve, poor fit]"

(next part)

Compound	cell number change [%]	AC50 [1]	AC50 [2]
CN(C)S(=O)(=O)c1cccc(COC(=O)CNC(=O)c2ccc(Br)o2)c1	12.4		2.06 µM [falling, single point]
CCN1N=C(c2ccccc2)Cn2c1nc1ccccc12		1.16 µM [rising, partial curve]	0.517 µM [rising, full curve]
O=C(CSc1ccc(Cl)cc1)NC(=O)c1ccccc1	-42.9	0.82 µM [falling, full curve]	0.517 µM [falling, full curve]
COC(=O)c1cc2oc3ccccc3c2n1CC(=O)Nc1ccccc1OC			0.58 µM [rising, full curve, poor fit]
COc1cc(S(=O)(=O)N(C)C)ccc1Br	-10.1		23.1 µM [falling, partial curve]
CC(=O)NNC(=S)NC(=O)C(c1ccccc1)c1ccccc1	-28		0.411 µM [falling, partial curve]
O=C(Nc1ccc(S(=O)(=O)Nc2nccs2)cc1)c1cccc(F)c1	16.7		
COc1ccc(Nc2nc(NCC3CCCO3)c3ccccc3n2)c(OC)c1 (centres undefined)	-48.7	18.4 µM [falling, single point]	
O=C(NCCN1CCOCC1)c1ccc(/C=C2\Sc3ccccc3N(Cc3ccccc3F)C2=O)cc1	-11.1		
COc1ccc(C(CNC(=O)CSc2ccccc2C)N(C)C)cc1 (centres undefined)	16.9		3.26 µM [falling, single point]
CCCCCn1c(=O)[nH]c2cc(C(=O)NCCN3CCC(C)CC3)ccc2c1=O	-0.855		
COc1ccc(N(CC(=O)N/N=C/c2cccs2)S(=O)(=O)c2ccc(OC)c(OC)c2)cc1	18.1		29.1 µM [falling, single point]
Cc1ccc2nc(SC(C(=O)Nc3ccc(F)cc3)c3ccccc3)[nH]c2c1 (centres undefined)	-29		20.6 µM [falling, single point]
CCOc1ccccc1CNC(=O)CN1C(=O)CSc2ccc(S(=O)(=O)N3CCOCC3)cc21	-23.6		29.1 µM [rising, single point]
CCc1ccc(-c2cc(C(=O)Nn3cnnc3)c3ccccc3n2)cc1	30.1	13 µM [rising, single point]	16.4 µM [rising, partial curve]
CC1CN(C(=O)c2cccc(Oc3ccccc3)c2)CC(C)O1 (centres undefined)	-19.9		
Cc1cc(C)cc(OCC(=O)Nc2nc(-c3cccnc3)cs2)c1	-40.5	35.5 µM [falling, single point]	12.6 µM [falling, single point]
Cn1c(CCN2CCOCC2)nc2cc(NC(=O)c3cccs3)ccc21	-14.8		3.26 µM [falling, full curve]

13 structures out of the list, sorted by SMILES length, smallest number first.
Compound	cell number change [%]	AC50 [1]	AC50 [2]
COc1cc(S(=O)(=O)N(C)C)ccc1Br	-10.1		23.1 µM [falling, partial curve]
CCN1N=C(c2ccccc2)Cn2c1nc1ccccc12		1.16 µM [rising, partial curve]	0.517 µM [rising, full curve]
O=C(CSc1ccc(Cl)cc1)NC(=O)c1ccccc1	-42.9	0.82 µM [falling, full curve]	0.517 µM [falling, full curve]
CC(=O)NNC(=S)NC(=O)C(c1ccccc1)c1ccccc1	-28		0.411 µM [falling, partial curve]
Cc1cc(C)cc(OCC(=O)Nc2nc(-c3cccnc3)cs2)c1	-40.5	35.5 µM [falling, single point]	12.6 µM [falling, single point]
Cn1c(CCN2CCOCC2)nc2cc(NC(=O)c3cccs3)ccc21	-14.8		3.26 µM [falling, full curve]
COC(=O)c1cc2oc3ccccc3c2n1CC(=O)Nc1ccccc1OC			0.58 µM [rising, full curve, poor fit]
O=C(Nc1ccc(S(=O)(=O)Nc2nccs2)cc1)c1cccc(F)c1	16.7		
Cc1ccc2nc(SC(C(=O)Nc3ccc(F)cc3)c3ccccc3)[nH]c2c1 (centres undefined)	-29		20.6 µM [falling, single point]
CN(C)S(=O)(=O)c1cccc(COC(=O)CNC(=O)c2ccc(Br)o2)c1	12.4		2.06 µM [falling, single point]
CCOc1ccccc1CNC(=O)CN1C(=O)CSc2ccc(S(=O)(=O)N3CCOCC3)cc21	-23.6		29.1 µM [rising, single point]
O=C(NCCN1CCOCC1)c1ccc(/C=C2\Sc3ccccc3N(Cc3ccccc3F)C2=O)cc1	-11.1		
COc1ccc(N(CC(=O)N/N=C/c2cccs2)S(=O)(=O)c2ccc(OC)c(OC)c2)cc1	18.1		29.1 µM [falling, single point]
